Data published in the supplement of paper PMC10849652.
This is one part of the list. Residues, ends and D or L forms follow the SMILES beside them. *: point of attachment. Cbz = O=C(OCc1ccccc1)*

Sequences of proteins named here, by UniProt entry; tags and fusion partners are left off. A change or cut given only in a name is not applied to a line headed by its entry.
UniProt P30046: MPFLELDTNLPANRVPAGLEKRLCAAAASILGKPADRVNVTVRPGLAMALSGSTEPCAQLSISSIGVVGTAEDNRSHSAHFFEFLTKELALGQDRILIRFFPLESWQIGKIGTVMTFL
UniProt Q6UWP2: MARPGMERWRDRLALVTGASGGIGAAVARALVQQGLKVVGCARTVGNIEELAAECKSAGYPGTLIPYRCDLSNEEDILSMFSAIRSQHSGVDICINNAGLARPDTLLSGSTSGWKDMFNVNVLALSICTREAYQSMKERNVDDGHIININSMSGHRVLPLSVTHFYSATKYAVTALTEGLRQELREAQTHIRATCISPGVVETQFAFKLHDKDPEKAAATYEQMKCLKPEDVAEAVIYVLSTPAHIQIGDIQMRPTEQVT
UniProt Q9Y2H0: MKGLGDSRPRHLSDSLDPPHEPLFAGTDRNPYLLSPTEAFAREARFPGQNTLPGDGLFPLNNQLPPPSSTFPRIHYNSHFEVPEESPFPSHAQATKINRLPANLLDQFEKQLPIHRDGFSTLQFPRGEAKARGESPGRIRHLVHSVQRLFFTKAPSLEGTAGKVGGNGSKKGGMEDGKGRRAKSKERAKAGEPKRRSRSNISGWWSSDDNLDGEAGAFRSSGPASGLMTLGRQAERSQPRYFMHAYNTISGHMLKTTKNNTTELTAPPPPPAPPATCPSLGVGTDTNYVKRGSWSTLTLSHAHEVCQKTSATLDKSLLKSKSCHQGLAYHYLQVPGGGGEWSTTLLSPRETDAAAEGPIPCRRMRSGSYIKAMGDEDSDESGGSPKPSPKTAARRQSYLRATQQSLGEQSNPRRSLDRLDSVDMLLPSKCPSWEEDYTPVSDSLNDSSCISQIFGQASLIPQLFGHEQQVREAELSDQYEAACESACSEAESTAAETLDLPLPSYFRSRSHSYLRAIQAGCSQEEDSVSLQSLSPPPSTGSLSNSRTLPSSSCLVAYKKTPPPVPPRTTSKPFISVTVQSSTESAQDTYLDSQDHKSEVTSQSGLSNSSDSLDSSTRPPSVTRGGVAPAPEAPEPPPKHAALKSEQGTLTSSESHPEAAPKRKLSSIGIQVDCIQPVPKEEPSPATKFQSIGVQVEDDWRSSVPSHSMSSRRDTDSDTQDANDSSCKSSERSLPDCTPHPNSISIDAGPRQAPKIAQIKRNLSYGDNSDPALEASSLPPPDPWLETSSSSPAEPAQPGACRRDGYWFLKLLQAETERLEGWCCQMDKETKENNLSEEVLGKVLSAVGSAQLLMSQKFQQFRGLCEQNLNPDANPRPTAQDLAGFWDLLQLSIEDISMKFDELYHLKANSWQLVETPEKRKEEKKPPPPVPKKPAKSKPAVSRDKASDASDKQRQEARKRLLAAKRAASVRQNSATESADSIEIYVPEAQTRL
UniProt O94830: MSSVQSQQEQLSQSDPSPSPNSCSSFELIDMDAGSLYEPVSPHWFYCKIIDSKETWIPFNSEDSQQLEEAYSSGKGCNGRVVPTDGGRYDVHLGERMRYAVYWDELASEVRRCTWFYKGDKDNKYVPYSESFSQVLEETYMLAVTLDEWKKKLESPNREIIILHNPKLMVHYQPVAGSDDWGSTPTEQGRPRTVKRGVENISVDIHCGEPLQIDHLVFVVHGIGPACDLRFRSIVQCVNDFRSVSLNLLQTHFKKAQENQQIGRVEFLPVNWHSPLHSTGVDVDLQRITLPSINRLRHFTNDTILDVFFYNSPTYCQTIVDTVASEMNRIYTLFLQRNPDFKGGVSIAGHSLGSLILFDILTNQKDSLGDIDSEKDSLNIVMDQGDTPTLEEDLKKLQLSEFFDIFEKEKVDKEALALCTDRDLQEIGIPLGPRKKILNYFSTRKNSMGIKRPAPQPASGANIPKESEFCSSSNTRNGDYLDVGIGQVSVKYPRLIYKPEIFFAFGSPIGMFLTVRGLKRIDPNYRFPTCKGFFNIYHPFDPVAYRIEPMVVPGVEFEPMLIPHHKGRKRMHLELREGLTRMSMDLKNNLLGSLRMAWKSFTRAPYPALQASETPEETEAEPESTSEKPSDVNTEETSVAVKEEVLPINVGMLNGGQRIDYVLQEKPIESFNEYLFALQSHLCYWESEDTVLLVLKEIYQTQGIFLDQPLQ
UniProt P98153: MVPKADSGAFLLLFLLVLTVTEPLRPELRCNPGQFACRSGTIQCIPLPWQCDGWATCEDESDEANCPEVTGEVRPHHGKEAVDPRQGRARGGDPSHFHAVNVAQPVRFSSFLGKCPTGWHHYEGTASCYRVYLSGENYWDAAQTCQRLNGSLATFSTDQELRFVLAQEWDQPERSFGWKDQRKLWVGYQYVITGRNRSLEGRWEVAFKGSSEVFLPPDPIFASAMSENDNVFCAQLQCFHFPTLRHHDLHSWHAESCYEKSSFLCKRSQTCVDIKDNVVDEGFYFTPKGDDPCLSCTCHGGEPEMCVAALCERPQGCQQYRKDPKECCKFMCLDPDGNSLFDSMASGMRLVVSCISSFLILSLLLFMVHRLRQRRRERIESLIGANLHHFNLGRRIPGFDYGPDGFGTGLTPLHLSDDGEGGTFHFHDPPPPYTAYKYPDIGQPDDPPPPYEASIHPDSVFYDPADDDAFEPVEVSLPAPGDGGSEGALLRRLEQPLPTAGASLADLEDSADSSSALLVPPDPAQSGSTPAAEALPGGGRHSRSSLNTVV
UniProt P00374: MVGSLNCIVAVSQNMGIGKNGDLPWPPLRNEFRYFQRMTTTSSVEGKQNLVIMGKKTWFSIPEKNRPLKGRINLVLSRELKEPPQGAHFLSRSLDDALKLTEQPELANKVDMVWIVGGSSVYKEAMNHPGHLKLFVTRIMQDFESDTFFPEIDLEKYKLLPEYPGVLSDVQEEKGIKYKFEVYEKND
UniProt P11532, whole entry, looked up: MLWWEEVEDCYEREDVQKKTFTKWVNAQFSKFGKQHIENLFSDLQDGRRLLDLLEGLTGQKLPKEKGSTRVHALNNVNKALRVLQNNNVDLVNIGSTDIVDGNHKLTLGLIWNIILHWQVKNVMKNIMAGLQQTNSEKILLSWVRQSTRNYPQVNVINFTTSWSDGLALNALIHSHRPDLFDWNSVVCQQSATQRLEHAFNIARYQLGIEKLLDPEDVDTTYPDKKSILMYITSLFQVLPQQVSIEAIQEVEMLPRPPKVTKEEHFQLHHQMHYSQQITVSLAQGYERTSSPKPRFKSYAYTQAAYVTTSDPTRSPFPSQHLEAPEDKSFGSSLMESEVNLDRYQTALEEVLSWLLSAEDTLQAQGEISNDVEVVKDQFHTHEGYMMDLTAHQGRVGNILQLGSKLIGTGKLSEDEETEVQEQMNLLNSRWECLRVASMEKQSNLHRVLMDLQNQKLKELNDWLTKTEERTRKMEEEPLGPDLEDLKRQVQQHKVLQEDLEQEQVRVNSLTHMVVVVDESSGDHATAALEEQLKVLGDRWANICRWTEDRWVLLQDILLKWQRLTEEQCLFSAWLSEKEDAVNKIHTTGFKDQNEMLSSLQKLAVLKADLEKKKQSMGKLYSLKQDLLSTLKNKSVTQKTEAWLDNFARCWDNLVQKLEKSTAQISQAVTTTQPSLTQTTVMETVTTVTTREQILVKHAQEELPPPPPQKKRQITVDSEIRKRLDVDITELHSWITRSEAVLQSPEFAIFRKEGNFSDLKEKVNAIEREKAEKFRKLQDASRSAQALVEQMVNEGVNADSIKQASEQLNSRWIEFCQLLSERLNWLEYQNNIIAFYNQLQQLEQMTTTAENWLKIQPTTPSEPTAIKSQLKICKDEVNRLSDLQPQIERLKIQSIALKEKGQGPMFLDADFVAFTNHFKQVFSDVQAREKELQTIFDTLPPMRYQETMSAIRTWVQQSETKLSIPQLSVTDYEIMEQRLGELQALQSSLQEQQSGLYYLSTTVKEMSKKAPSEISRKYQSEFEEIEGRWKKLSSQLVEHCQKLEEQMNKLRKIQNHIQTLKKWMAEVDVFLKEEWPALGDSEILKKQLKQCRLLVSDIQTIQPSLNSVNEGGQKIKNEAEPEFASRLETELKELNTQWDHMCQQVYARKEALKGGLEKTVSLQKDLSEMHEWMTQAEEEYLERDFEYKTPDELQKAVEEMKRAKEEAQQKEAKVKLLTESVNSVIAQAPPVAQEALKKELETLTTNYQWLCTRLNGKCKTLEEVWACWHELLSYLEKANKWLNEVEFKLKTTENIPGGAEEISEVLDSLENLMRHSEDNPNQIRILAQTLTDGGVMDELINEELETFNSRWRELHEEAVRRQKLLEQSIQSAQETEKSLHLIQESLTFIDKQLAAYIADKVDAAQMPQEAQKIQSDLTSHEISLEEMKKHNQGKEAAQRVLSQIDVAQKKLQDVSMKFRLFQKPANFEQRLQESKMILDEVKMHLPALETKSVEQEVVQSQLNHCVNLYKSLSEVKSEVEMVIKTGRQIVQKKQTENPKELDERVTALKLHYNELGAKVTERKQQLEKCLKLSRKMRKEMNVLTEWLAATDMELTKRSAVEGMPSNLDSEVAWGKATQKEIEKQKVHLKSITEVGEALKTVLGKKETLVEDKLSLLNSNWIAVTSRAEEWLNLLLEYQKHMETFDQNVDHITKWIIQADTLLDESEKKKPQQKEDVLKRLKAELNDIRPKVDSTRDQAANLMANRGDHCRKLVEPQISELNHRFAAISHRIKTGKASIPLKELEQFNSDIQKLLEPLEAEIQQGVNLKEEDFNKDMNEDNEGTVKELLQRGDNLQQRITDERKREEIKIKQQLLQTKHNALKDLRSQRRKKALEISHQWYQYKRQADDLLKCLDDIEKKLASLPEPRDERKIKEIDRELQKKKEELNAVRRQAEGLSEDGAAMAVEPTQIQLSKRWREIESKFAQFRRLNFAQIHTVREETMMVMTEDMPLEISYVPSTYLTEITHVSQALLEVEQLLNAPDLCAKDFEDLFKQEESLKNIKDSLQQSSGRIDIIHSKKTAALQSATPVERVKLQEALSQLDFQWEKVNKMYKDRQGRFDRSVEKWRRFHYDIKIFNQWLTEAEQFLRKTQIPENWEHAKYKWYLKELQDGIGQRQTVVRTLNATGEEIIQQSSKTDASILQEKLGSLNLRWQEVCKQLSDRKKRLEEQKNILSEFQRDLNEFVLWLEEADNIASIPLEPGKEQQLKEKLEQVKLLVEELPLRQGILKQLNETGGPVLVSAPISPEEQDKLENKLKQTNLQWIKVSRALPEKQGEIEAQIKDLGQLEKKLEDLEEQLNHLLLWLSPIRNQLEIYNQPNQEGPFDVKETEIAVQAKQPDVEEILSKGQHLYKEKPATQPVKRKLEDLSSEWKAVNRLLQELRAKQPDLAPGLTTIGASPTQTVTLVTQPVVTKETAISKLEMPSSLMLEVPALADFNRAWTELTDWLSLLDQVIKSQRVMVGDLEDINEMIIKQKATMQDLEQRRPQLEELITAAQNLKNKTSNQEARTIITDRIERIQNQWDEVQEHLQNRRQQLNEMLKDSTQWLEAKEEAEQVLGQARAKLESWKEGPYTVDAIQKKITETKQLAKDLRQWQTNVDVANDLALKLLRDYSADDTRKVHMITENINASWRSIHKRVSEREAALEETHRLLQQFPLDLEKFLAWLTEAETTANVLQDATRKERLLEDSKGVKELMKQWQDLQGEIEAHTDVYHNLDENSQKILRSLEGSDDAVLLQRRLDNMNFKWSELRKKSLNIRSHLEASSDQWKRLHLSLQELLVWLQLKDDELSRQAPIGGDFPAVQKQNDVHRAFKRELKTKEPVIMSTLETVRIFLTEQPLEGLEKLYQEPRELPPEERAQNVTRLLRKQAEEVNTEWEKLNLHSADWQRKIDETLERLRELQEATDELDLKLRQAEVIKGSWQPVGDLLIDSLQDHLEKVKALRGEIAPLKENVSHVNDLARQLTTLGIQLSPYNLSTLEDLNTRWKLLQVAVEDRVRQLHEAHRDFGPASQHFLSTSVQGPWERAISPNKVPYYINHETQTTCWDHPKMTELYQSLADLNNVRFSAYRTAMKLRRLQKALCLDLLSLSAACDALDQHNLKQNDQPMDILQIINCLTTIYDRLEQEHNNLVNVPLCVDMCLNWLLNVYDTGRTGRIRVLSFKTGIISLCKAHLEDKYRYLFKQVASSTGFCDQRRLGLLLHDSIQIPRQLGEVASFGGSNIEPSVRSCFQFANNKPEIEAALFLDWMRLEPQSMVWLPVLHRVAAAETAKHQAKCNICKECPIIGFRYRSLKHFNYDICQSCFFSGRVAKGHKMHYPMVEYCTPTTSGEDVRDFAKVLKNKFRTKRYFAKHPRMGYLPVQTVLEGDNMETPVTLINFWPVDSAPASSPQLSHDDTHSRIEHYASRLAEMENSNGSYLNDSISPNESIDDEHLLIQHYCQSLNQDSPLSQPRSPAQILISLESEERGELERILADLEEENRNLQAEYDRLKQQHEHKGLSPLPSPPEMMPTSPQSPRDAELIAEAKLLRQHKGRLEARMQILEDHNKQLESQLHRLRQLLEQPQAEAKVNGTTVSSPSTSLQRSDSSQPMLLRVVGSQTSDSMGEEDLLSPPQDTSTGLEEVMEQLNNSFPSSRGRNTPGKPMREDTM

Legend:
Assay in all cases: log2 fold change, soluble protein after heating vs DMSO (PISA); higher = thermal stabilisation; K562 cells, 10 uM, 30 min; active = over 0.2 and 3.5 SD of the protein, either way, in both replicates (recomputed)
IRAK-1-4 Inhibitor I = compound: C1COCCN1CCN2C3=CC=CC=C3N=C2NC(=O)C4=CC(=CC=C4)[N+](=O)[O-] [IRAK-1-4 Inhibitor I]
Procedure, shortened: (§1)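 Soluble protein was quantified by TMTpro 16plex LC-MS/MS after channel sums were equalised. It was obtained as the supernatant after 21,000xg for 90 min from pooled aliquots of K562 cells (2×10^6 cells/mL, 10 μM compound, 30 min) heated for 3 min across 48°C-58°C and extracted in PBS with 0.5% NP-40 at 4°C. Thermal stability values are relative to control samples and come from duplicates. They are given as log2 fold changes.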

ibrutinib = compound: C=CC(=O)N1CCC[C@@H](n2nc(-c3ccc(Oc4ccccc4)cc3)c3c(N)ncnc32)C1 [ibrutinib]
Procedure, shortened: as §1

[1] = compound: CC(=O)c1cnc2ccc(-c3cc(Cl)c(O)c(Cl)c3)nc2c1N[C@H]1CC[C@H](CN(C)C)CC1
Procedure, shortened: as §1

ralimetinib = compound: CC(C)(C)Cn1c(N)nc2ccc(-c3[nH]c(C(C)(C)C)nc3-c3ccc(F)cc3)nc21 [ralimetinib]
Procedure, shortened: as §1

[2] = compound: CC(C)(O)CC(=O)NCCn1ccc2ncnc(Nc3ccc(Oc4cccc(C(F)(F)F)c4)c(Cl)c3)c21
Procedure, shortened: as §1

[3] = compound: CC(C)C1=C2N=C(C=C(N2N=C1)NCC3=CC=CC=C3)NCCCCCCN
Procedure, shortened: as §1

[4] = compound: CC(C)C[C@@H](C=O)NC(=O)[C@H](CC(C)C)NC(=O)[C@H](CC(C)C)NC(=O)OCc1ccccc1
Procedure, shortened: as §1

pinometostat = compound: CC(C)N(C[C@H]1O[C@@H](n2cnc3c(N)ncnc32)[C@H](O)[C@@H]1O)[C@H]1C[C@@H](CCc2nc3cc(C(C)(C)C)ccc3[nH]2)C1 [pinometostat]
Procedure, shortened: as §1

[5] = compound: CC1=C(C(CC(=O)N1)C2=CC=C(C=C2)C(F)(F)F)C(=O)NC3=C(C=C4C(=C3)C=NN4)F
Procedure, shortened: as §1

[6] = compound: CC1=C(C2=C(C=C1)C(=O)C3=CC=CC=C3N2CCCN)C
Procedure, shortened: as §1

Measured: log2 fold change

DECR1 (UniProt Q16698)
inactive: IRAK-1-4 Inhibitor I 0.002 | ibrutinib -0.031 | [1] 0.005 | ralimetinib -0.004 | [2] -0.011 | [3] 0.043 | [4] -0.009 | pinometostat -0.042 | [5] -0.007 | [6] 0.012

DNAH8 (UniProt Q96JB1)
inactive: IRAK-1-4 Inhibitor I 0.044 | ibrutinib 0.162 | [1] 0.053 | ralimetinib -0.071 | [2] -0.052 | [3] 0.095 | [4] -0.067 | pinometostat -0.114 | [5] 0.067 | [6] -0.001

DDI2 isoform 3 (UniProt Q5TDH0)
inactive: IRAK-1-4 Inhibitor I 0.065 | ibrutinib 0.013 | [1] 0.049 | ralimetinib -0.024 | [2] 0.005 | [3] -0.04 | [4] 0.001 | pinometostat -0.036 | [5] -0.017 | [6] -0.067

DHODH (UniProt Q02127)
inactive: IRAK-1-4 Inhibitor I 0.016 | ibrutinib -0.007 | [1] 0.005 | ralimetinib -0.058 | [2] -0.009 | [3] 0.037 | [4] -0.009 | pinometostat -0.012 | [5] 0.008 | [6] -0.005

DHRS7 (UniProt Q9Y394)
inactive: IRAK-1-4 Inhibitor I 0.005 | ibrutinib 0.024 | [1] -0.013 | ralimetinib -0.027 | [2] 0.014 | [3] 0.043 | [4] -0.026 | pinometostat -0.025 | [5] -0.031 | [6] 0.013

DGCR8 (UniProt Q8WYQ5)
inactive: IRAK-1-4 Inhibitor I -0.203 | ibrutinib 0.18 | [1] -0.085 | ralimetinib 0.129 | [2] 0.009 | [3] 0.119 | [4] 0.073 | pinometostat 0.136 | [5] -0.109 | [6] -0.299

DDT (UniProt P30046)
inactive: IRAK-1-4 Inhibitor I 0.013 | ibrutinib 0 | [1] 0 | ralimetinib -0.054 | [2] -0.072 | [3] 0.057 | [4] -0.022 | pinometostat -0.032 | [5] 0.016 | [6] 0.115

DHRS11 (UniProt Q6UWP2)
inactive: IRAK-1-4 Inhibitor I 0.079 | ibrutinib 0.028 | [1] -0.1 | ralimetinib 0.01 | [2] -0.036 | [3] 0.001 | [4] -0.058 | pinometostat -0.03 | [5] 0.01 | [6] 0.129

DLGAP4 (UniProt Q9Y2H0)
inactive: IRAK-1-4 Inhibitor I 0.033 | ibrutinib 0.03 | [1] -0.023 | ralimetinib -0.003 | [2] -0.022 | [3] 0.028 | [4] 0.031 | pinometostat -0.041 | [5] 0.024 | [6] 0.018

DGAT1 (UniProt O75907)
inactive: IRAK-1-4 Inhibitor I -0.11 | ibrutinib -0.028 | [1] -0.061 | ralimetinib -0.071 | [2] 0.034 | [3] 0.086 | [4] -0.012 | pinometostat -0.046 | [5] -0.039 | [6] 0.141

Reprinted from above (2 entries):
DLGAP4 (UniProt Q9Y2H0)
inactive: IRAK-1-4 Inhibitor I 0.033 | ibrutinib 0.03 | [1] -0.023 | ralimetinib -0.003 | [2] -0.022 | [3] 0.028 | [4] 0.031 | pinometostat -0.041 | [5] 0.024 | [6] 0.018

DGAT1 (UniProt O75907)
inactive: IRAK-1-4 Inhibitor I -0.11 | ibrutinib -0.028 | [1] -0.061 | ralimetinib -0.071 | [2] 0.034 | [3] 0.086 | [4] -0.012 | pinometostat -0.046 | [5] -0.039 | [6] 0.141

More entries follow:

DDX6 (UniProt P26196)
inactive: IRAK-1-4 Inhibitor I 0 | ibrutinib 0.016 | [1] -0.095 | ralimetinib 0.051 | [2] 0.013 | [3] -0.016 | [4] 0.037 | pinometostat 0.069 | [5] -0.007 | [6] 0.073

DDHD2 (UniProt O94830)
inactive: IRAK-1-4 Inhibitor I 0.042 | ibrutinib 0.023 | [1] -0.079 | ralimetinib 0.01 | [2] -0.009 | [3] -0.13 | [4] 0.01 | pinometostat 0.006 | [5] 0.012 | [6] 0.045

DFFA (UniProt O00273)
inactive: IRAK-1-4 Inhibitor I 0.035 | ibrutinib 0.006 | [1] 0.038 | ralimetinib -0.056 | [2] -0.024 | [3] 0.03 | [4] -0.087 | pinometostat -0.054 | [5] 0.043 | [6] -0.025

DGCR2 (UniProt P98153)
inactive: IRAK-1-4 Inhibitor I 0.035 | ibrutinib 0.007 | [1] 0.051 | ralimetinib 0.062 | [2] -0.011 | [3] -0.027 | [4] 0.083 | pinometostat 0.022 | [5] 0.08 | [6] -0.046

DHDDS isoform 2 (UniProt Q86SQ9)
inactive: IRAK-1-4 Inhibitor I -0.116 | ibrutinib 0.001 | [1] -0.018 | ralimetinib -0.079 | [2] 0.049 | [3] 0.063 | [4] -0.064 | pinometostat -0.026 | [5] -0.021 | [6] -0.053

DENR (UniProt O43583)
inactive: IRAK-1-4 Inhibitor I 0.035 | ibrutinib -0.031 | [1] 0 | ralimetinib -0.061 | [2] 0.029 | [3] 0.063 | [4] -0.022 | pinometostat -0.052 | [5] 0.039 | [6] -0.04

DDX20 (UniProt Q9UHI6)
inactive: IRAK-1-4 Inhibitor I -0.117 | ibrutinib -0.115 | [1] -0.197 | ralimetinib 0.133 | [2] -0.009 | [3] -0.262 | [4] 0.108 | pinometostat 0.547 | [5] -0.027 | [6] -0.37

DHX29 (UniProt Q7Z478)
inactive: IRAK-1-4 Inhibitor I -0.142 | ibrutinib -0.037 | [1] 0.062 | ralimetinib 0.162 | [2] 0.043 | [3] -0.005 | [4] 0.079 | pinometostat 0.14 | [5] -0.026 | [6] 0.064

DLST (UniProt P36957)
inactive: IRAK-1-4 Inhibitor I -0.029 | ibrutinib 0.003 | [1] 0.035 | ralimetinib 0.017 | [2] -0.012 | [3] 0.068 | [4] 0.002 | pinometostat -0.014 | [5] 0.063 | [6] -0.019

DHX30 isoform 2 (UniProt Q7L2E3)
inactive: IRAK-1-4 Inhibitor I -0.16 | ibrutinib 0.05 | [1] 0.008 | ralimetinib 0.133 | [2] 0.03 | [3] -0.104 | [4] 0.106 | pinometostat 0.164 | [5] -0.041 | [6] -0.292

DMAC2 isoform 4 (UniProt Q9NW81)
inactive: IRAK-1-4 Inhibitor I -0.067 | ibrutinib -0.048 | [1] -0.051 | ralimetinib -0.049 | [2] 0.018 | [3] 0.043 | [4] -0.012 | pinometostat -0.099 | [5] 0.018 | [6] 0.004

DIMT1 (UniProt Q9UNQ2)
inactive: IRAK-1-4 Inhibitor I -0.153 | ibrutinib 0.001 | [1] 0.178 | ralimetinib 0.125 | [2] 0 | [3] 0.061 | [4] 0.094 | pinometostat 0.275 | [5] -0.044 | [6] -0.416

DLAT (UniProt P10515)
inactive: IRAK-1-4 Inhibitor I -0.144 | ibrutinib -0.096 | [1] 0.157 | ralimetinib 0.102 | [2] 0.03 | [3] -0.051 | [4] 0.022 | pinometostat 0.176 | [5] 0.064 | [6] -0.019

DHFR (UniProt P00374)
inactive: IRAK-1-4 Inhibitor I -0.065 | ibrutinib -0.008 | [1] -0.06 | ralimetinib 0.192 | [2] -0.044 | [3] 0.101 | [4] 0.083 | pinometostat 0.255 | [6] 0.2

DERA (UniProt Q9Y315)
inactive: IRAK-1-4 Inhibitor I 0.049 | ibrutinib 0.042 | [1] -0.008 | ralimetinib 0.006 | [2] -0.013 | [3] 0.1 | [4] -0.015 | pinometostat 0.005 | [5] 0.012 | [6] 0.012

DLG3 (UniProt Q92796)
inactive: IRAK-1-4 Inhibitor I 0.064 | ibrutinib 0.003 | [1] -0.129 | ralimetinib -0.002 | [2] 0 | [3] -0.057 | [4] 0.137 | pinometostat -0.002 | [5] -0.054 | [6] 0.062

DHRS4 (UniProt Q9BTZ2)
inactive: IRAK-1-4 Inhibitor I 0.068 | ibrutinib 0.027 | [1] -0.007 | ralimetinib 0.099 | [2] -0.013 | [3] -0.014 | [4] -0.024 | pinometostat -0.067 | [5] 0.026 | [6] -0.034

DMD (UniProt P11532)
inactive: IRAK-1-4 Inhibitor I 0.015 | ibrutinib -0.013 | [1] -0.108 | ralimetinib -0.032 | [2] 0.022 | [3] -0.025 | [4] -0.006 | pinometostat 0.002 | [5] 0.005 | [6] 0.016

DDX39B isoform 2 (UniProt Q13838)
inactive: IRAK-1-4 Inhibitor I -0.036 | ibrutinib 0.01 | [1] -0.007 | ralimetinib 0.009 | [2] 0.089 | [3] 0.083 | [4] 0 | pinometostat 0.017 | [5] -0.028 | [6] -0.02

DIS3L2 (UniProt Q8IYB7)
inactive: IRAK-1-4 Inhibitor I -0.034 | ibrutinib 0.002 | [1] -0.035 | ralimetinib 0.06 | [2] 0.037 | [3] -0.048 | [4] 0.023 | pinometostat 0.068 | [5] -0.022 | [6] -0.261
